For part of these data: HELM strings list residues between dots; [ac] is acetyl, [am] amide, other brackets name non-standard units. Bridge positions count the residues as written; N and C are the ends. Peptide text beside a SMILES is read from it.
Experiments:
human erythrocytes = assay: Hemolysis assay; type: cell-based; conditions: for Selective index (H/M): ratio of H (3% hemolysis) over lowest MMC (M)
Procedure: For the hemolysis assay, the hemolytic activity of each peptide was determined by the method of Tam et al. (Tam et al., Eur. J. Biochem. 267:3289-3300 (2000)). Blood was obtained from a healthy donor in accordance to a protocol approved by the Institutional Review Board. Normal human serum was prepared from the same individual and stored at −20° C. Red blood cells (RBC) were prepared from blood collected in EDTA. RBC were harvested at 234×g for 10 min, 22° C., washed four times with 10 mM sodium phosphate, 150 mM NaCl, pH 7.4 (PBS), containing 4 mM EDTA and resuspended in PBS without EDTA. Peptides dissolved in 10 μl 0.01% HOAc were diluted with PBS to final concentrations of 0.3-100 μg/ml. RBC were added to a 2% final density in 100 μl. Incubation mixtures were also prepared with 10% serum. After 1 h incubation at 37° C., the cell suspensions were centrifuged at 234×g for 10 min, 22° C. Fifty-μl samples of the supernatants were removed, and the absorbance at 405 nm (A) was measured. Hemolytic activity of each peptide was calculated relative to lysis by 1% NP-40 using the following formula:
A selectivity index (SI=H/M) was calculated as a ratio of a peptide concentration (μg/ml) that causes 3% hemolysis (H) obtained from a dose-dependent hemolysis plot over 0.3 to 3 μg/ml of each peptide in PBS and the lowest MMC value (M) for any of the three test microorganisms (see Example II; Table 2).

[1] = general procedure: Fmoc solid-phase peptide synthesis; Fmoc-Arg(Pbf)-PEG-PS (peptide acids); Fmoc-PAL-PEG-PS (peptide amides); HATU/DIEA; Cys as pentafluorophenyl ester; conditions: for cyclisation yield: cyclisation step; for final HPLC purity: whole synthesis, analytical RP-HPLC, scale of the general procedure 0.1 mmol

Molecule: CC(C)C[C@H](NC(=O)[C@H](CCCNC(=N)N)NC(=O)CNC(=O)CN)C(=O)N[C@H]1CSSC[C@@H](C(=O)N[C@H](C(=O)NCC(=O)N[C@@H](CCCNC(=N)N)C(=O)N[C@@H](CCCNC(=N)N)C(=O)O)C(C)C)NC(=O)[C@H](C(C)C)NC(=O)[C@@H]2CSSC[C@H](NC(=O)[C@H](Cc3ccc(O)cc3)NC1=O)C(=O)N[C@@H](CCCNC(=N)N)C(=O)N[C@@H](CCCNC(=N)N)C(=O)N[C@@H](CCCNC(=N)N)C(=O)N[C@@H](Cc1ccccc1)C(=O)N2 [4:4 PG-1-OH] (H-GGRLCYCRRRFCVCVGRR-OH; disulfide 5-14, 7-12; N-terminus assumed)
- percent lower selectivity index than the amidated analogs (4:4 PG-1-NH and PG-1) (human erythrocytes; from selectivity indices): about 50%

Molecule: CC(C)C[C@H](NC(=O)[C@H](CCCNC(=N)N)NC(=O)CNC(=O)CNC(=O)[C@@H](N)CCCNC(=N)N)C(=O)N[C@H]1CSSC[C@@H](C(=O)N[C@H](C(=O)NCC(=O)N[C@@H](CCCNC(=N)N)C(N)=O)C(C)C)NC(=O)[C@H](C(C)C)NC(=O)[C@@H]2CSSC[C@H](NC(=O)[C@H](Cc3ccc(O)cc3)NC1=O)C(=O)N[C@@H](CCCNC(=N)N)C(=O)N[C@@H](CCCNC(=N)N)C(=O)N[C@@H](CCCNC(=N)N)C(=O)N[C@@H](Cc1ccccc1)C(=O)N2 [PG-1, reference compound]
- fold less selective than RTD-2 (human erythrocytes; from selectivity indices): 7 fold
- selectivity relative to RTD-1 and 3 (human erythrocytes; from selectivity indices): three-fold less selective

Molecule: CC(C)C[C@H](NC(=O)[C@H](CCCNC(=N)N)NC(=O)CNC(=O)CNC(=O)[C@@H](N)CCCNC(=N)N)C(=O)N[C@H]1CSSC[C@@H](C(=O)N[C@H](C(=O)NCC(=O)N[C@@H](CCCNC(=N)N)C(=O)O)C(C)C)NC(=O)[C@H](C(C)C)NC(=O)[C@@H]2CSSC[C@H](NC(=O)[C@H](Cc3ccc(O)cc3)NC1=O)C(=O)N[C@@H](CCCNC(=N)N)C(=O)N[C@@H](CCCNC(=N)N)C(=O)N[C@@H](CCCNC(=N)N)C(=O)N[C@@H](Cc1ccccc1)C(=O)N2 [PG-1-OH] (H-RGGRLCYCRRRFCVCVGR-OH; disulfide 6-15, 8-13; N-terminus assumed)
- percent lower selectivity index than the amidated analogs (4:4 PG-1-NH and PG-1) (human erythrocytes; from selectivity indices): about 50%

Molecule: CC[C@H](C)[C@@H]1NC(=O)[C@@H]2CSSC[C@H](NC(=O)[C@H](CCCNC(=N)N)NC(=O)[C@@H]3CSSC[C@H](NC1=O)C(=O)N[C@@H]([C@@H](C)O)C(=O)N[C@@H](CCCNC(=N)N)C(=O)NCC(=O)N[C@@H](Cc1ccccc1)C(=O)N3)C(=O)N[C@@H]([C@@H](C)CC)C(=O)N[C@H]1CSSC[C@H](NC(=O)[C@H](Cc3ccccc3)NC(=O)CNC(=O)[C@H](CCCNC(=N)N)NC(=O)[C@H]([C@@H](C)O)NC1=O)C(=O)N[C@@H](CCCNC(=N)N)C(=O)N2 [RTD-2] (cyclo(CICTRGFCRCICTRGFCR); disulfide 1-10, 3-8, 12-17)
- fold more selective than RTD-1 and RTD-3 (human erythrocytes; from selectivity indices): 2- to 2.5 fold
- Selective index (H/M) (human erythrocytes): 14.3

Molecule: CC(C)C[C@@H]1NC(=O)[C@@H]2CSSC[C@H](NC(=O)[C@H](CCCNC(=N)N)NC(=O)[C@@H]3CSSC[C@H](NC1=O)C(=O)N[C@@H](CCCNC(=N)N)C(=O)N[C@@H](CCCNC(=N)N)C(=O)NCC(=O)N[C@@H](C(C)C)C(=O)N3)C(=O)N[C@@H](CC(C)C)C(=O)N[C@H]1CSSC[C@H](NC(=O)[C@H](C(C)C)NC(=O)CNC(=O)[C@H](CCCNC(=N)N)NC(=O)[C@H](CCCNC(=N)N)NC1=O)C(=O)N[C@@H](CCCNC(=N)N)C(=O)N2 [RTD-3] (cyclo(CLCRRGVCRCLCRRGVCR); disulfide 1-10, 3-8, 12-17)
- Selective index (H/M) (human erythrocytes): 6.3

Molecule: CC(C)C[C@@H]1NC(=O)[C@H](CCCNC(=N)N)NC(=O)CNC(=O)CNC(=O)[C@H](CCCNC(=N)N)NC(=O)[C@H](CCCNC(=N)N)NC(=O)CNC(=O)[C@H](C(C)C)NC(=O)[C@@H]2CSSC[C@H](NC1=O)C(=O)N[C@@H](Cc1ccc(O)cc1)C(=O)N[C@H]1CSSC[C@H](NC(=O)[C@H](Cc3ccccc3)NC(=O)[C@H](CCCNC(=N)N)NC(=O)[C@H](CCCNC(=N)N)NC(=O)[C@H](CCCNC(=N)N)NC1=O)C(=O)N[C@@H](C(C)C)C(=O)N2 [cPG-1] (cyclo(GGRLCYCRRRFCVCVGRR); disulfide 5-14, 7-12)
- percent lower selectivity index than the amidated analogs (4:4 PG-1-NH and PG-1) (human erythrocytes; from selectivity indices): about 50%

Molecule: PEPTIDE1{G.F.C.R.C.I.C.T.R.G.F.C.R.C.I.C.T.R}$PEPTIDE1,PEPTIDE1,1:R1-18:R2|PEPTIDE1,PEPTIDE1,3:R3-16:R3|PEPTIDE1,PEPTIDE1,5:R3-14:R3|PEPTIDE1,PEPTIDE1,7:R3-12:R3$$$V2.0
- cyclisation yield [1]: 60%
- final HPLC purity [1]: more than 99%

Molecule: PEPTIDE1{G.V.C.R.C.L.C.R.R.G.V.C.R.C.L.C.R.R}$PEPTIDE1,PEPTIDE1,1:R1-18:R2|PEPTIDE1,PEPTIDE1,3:R3-16:R3|PEPTIDE1,PEPTIDE1,5:R3-14:R3|PEPTIDE1,PEPTIDE1,7:R3-12:R3$$$V2.0
- cyclisation yield [1]: 90%
- final HPLC purity [1]: more than 99%

From patent publication US7462598B2 (priority 2002, dated 2008)
